Assay results published in the supplement of paper PMC10849652.
This is one part of the list.

By UniProt entry, the sequences of proteins in these tests, tags left out. Where a name states a change or a piece, a line headed by the entry shows the natural chain unless it says otherwise.
UniProt Q9NV35: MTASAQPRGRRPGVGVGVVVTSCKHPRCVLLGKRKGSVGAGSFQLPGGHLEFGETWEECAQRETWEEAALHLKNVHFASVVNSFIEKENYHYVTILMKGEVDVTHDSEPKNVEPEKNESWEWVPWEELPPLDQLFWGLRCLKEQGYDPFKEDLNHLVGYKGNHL
UniProt P53384: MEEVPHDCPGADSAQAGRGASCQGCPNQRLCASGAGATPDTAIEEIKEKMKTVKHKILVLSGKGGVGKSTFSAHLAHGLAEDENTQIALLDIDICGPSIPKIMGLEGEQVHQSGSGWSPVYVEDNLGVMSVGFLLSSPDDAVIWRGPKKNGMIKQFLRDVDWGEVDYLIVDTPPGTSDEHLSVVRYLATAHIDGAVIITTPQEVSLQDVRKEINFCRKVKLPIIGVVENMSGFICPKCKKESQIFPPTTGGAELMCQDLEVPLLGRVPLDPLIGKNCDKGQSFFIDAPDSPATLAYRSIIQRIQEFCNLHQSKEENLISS
UniProt Q7Z3B4: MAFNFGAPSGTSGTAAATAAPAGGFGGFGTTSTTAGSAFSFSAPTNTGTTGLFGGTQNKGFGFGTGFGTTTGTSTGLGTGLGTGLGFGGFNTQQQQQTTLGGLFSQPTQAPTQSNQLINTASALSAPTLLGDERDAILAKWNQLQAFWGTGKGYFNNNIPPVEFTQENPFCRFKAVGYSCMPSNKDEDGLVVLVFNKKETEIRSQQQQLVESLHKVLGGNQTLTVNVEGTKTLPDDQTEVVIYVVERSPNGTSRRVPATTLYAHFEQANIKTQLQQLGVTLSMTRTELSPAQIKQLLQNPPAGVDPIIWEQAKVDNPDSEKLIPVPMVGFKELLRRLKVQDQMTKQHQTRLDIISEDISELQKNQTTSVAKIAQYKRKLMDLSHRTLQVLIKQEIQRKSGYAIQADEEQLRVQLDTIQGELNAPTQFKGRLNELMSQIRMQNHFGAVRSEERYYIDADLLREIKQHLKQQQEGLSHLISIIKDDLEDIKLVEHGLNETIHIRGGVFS
UniProt Q8WVJ2: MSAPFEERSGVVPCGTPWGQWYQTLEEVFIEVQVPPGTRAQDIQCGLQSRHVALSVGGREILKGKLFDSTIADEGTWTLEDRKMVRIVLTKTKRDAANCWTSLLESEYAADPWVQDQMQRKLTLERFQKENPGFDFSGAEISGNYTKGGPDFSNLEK
UniProt P11940, whole entry, looked up: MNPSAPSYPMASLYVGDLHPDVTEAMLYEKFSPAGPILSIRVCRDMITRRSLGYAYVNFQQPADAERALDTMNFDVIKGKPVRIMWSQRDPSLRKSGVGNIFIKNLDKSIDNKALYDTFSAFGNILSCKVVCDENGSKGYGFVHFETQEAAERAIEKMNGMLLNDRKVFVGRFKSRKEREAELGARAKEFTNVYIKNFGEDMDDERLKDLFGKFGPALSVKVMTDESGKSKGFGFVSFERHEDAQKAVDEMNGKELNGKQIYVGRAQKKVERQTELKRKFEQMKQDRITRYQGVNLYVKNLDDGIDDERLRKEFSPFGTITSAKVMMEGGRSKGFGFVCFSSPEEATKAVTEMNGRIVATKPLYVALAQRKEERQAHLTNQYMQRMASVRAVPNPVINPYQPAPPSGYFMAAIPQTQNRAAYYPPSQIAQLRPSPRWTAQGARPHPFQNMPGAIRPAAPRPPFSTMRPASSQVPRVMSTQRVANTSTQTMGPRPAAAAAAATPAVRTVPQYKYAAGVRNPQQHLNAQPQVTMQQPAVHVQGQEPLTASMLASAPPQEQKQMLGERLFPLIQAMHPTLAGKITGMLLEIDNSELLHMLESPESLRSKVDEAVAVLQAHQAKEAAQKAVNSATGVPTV
UniProt P0C025: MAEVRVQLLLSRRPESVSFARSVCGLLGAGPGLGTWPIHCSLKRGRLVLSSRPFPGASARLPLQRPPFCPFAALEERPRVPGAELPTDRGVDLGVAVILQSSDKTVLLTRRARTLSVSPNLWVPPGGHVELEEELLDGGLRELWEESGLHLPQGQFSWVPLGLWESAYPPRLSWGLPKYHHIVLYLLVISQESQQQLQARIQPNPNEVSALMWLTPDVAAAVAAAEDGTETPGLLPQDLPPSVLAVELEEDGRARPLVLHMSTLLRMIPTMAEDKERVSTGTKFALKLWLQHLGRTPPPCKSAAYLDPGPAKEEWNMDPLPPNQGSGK
UniProt Q5SWX8: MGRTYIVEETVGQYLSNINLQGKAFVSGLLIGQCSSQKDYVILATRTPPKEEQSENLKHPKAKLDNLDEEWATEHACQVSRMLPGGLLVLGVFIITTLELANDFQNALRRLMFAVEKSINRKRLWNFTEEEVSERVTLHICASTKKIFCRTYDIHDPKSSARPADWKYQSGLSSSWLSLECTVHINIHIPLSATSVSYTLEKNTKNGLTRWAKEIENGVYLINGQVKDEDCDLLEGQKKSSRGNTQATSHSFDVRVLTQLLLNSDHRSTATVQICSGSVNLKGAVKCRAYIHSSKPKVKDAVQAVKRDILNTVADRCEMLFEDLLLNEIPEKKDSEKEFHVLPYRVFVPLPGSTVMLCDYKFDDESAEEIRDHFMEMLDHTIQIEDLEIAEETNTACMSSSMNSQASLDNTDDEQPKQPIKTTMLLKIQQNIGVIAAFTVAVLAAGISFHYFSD
UniProt P20774: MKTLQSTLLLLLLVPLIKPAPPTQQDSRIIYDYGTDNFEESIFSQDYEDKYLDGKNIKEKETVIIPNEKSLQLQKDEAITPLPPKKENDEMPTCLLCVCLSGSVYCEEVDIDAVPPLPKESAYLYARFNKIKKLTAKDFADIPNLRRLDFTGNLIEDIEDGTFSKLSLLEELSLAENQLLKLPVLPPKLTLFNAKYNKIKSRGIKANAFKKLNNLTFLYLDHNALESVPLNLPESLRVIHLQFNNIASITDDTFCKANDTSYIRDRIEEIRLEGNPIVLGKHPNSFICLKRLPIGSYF
UniProt P55809: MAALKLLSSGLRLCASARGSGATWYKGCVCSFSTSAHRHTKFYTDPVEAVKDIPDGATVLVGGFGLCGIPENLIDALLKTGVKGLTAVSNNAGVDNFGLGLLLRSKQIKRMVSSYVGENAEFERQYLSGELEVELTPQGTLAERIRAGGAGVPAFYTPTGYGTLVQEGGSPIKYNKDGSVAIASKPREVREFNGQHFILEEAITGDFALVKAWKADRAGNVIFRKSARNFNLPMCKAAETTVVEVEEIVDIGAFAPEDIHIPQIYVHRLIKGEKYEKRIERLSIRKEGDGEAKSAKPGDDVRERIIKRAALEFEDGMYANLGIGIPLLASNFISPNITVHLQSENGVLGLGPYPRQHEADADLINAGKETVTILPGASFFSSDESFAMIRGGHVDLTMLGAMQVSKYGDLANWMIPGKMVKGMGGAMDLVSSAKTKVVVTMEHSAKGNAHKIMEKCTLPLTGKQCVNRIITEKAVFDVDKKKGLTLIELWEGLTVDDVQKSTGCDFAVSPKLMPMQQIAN
UniProt Q13438: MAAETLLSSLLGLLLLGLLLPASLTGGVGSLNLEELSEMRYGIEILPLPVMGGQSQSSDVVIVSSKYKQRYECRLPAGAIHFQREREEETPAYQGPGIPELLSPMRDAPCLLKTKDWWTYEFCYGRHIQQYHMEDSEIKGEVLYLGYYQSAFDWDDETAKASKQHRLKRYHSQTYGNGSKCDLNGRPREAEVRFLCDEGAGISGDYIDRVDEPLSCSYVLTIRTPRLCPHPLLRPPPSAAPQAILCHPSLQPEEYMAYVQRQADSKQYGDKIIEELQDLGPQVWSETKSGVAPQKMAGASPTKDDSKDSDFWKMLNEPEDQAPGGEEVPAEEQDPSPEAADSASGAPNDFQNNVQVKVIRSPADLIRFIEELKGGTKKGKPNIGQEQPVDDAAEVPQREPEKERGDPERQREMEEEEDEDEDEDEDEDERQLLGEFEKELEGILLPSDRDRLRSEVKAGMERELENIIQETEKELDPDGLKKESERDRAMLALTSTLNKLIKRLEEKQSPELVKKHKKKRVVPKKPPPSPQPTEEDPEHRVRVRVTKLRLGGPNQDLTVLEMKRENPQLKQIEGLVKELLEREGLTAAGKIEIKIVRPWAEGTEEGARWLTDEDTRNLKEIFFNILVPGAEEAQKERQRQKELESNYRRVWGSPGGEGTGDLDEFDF
UniProt Q9NPF4: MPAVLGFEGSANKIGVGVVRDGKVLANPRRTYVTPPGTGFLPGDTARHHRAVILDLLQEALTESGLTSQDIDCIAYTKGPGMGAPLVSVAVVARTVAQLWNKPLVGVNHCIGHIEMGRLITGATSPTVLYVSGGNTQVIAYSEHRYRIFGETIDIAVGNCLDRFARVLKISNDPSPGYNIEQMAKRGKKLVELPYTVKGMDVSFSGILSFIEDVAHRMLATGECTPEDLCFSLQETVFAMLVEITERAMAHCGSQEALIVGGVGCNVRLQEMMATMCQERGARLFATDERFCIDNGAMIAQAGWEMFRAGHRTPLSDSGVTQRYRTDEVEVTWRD
UniProt Q9NRP0: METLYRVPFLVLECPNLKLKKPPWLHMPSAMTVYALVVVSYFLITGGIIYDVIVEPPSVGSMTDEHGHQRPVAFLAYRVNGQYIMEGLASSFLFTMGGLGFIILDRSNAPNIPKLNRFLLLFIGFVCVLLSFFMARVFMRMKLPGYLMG
UniProt Q9BRJ7: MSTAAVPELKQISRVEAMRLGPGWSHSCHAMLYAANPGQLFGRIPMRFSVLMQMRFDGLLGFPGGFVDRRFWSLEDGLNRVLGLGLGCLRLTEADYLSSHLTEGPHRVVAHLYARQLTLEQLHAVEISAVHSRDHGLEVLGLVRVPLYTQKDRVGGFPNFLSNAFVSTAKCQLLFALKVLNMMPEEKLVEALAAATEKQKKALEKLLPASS
UniProt Q8N543: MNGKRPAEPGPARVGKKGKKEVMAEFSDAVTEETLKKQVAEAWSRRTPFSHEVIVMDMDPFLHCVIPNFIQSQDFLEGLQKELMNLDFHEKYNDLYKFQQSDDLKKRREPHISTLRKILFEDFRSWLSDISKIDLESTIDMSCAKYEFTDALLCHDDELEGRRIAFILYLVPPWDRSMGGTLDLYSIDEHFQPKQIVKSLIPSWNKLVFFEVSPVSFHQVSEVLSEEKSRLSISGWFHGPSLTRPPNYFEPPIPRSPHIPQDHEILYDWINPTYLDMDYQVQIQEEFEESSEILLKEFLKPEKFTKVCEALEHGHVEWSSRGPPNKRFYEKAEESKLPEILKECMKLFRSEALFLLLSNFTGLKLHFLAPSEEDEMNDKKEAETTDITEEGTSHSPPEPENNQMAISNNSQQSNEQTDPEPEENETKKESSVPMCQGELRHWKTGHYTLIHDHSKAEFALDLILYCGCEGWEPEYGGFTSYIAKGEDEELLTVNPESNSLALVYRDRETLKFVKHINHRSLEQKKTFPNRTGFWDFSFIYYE
UniProt O43482, whole entry, looked up: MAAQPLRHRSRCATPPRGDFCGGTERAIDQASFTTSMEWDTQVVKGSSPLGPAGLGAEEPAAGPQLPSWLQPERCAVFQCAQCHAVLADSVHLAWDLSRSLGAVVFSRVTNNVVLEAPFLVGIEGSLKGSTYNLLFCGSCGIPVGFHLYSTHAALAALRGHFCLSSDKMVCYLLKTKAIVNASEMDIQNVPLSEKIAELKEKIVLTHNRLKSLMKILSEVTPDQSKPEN
UniProt Q86WC4: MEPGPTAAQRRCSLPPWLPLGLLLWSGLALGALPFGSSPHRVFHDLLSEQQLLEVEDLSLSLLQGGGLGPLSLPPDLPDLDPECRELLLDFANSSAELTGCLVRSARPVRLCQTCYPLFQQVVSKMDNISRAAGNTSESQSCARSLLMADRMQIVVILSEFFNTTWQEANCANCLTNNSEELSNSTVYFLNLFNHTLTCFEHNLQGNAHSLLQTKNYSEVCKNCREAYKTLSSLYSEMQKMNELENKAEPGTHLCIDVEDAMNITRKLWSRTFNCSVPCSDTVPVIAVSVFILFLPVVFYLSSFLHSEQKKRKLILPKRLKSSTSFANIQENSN
UniProt Q9BXB4: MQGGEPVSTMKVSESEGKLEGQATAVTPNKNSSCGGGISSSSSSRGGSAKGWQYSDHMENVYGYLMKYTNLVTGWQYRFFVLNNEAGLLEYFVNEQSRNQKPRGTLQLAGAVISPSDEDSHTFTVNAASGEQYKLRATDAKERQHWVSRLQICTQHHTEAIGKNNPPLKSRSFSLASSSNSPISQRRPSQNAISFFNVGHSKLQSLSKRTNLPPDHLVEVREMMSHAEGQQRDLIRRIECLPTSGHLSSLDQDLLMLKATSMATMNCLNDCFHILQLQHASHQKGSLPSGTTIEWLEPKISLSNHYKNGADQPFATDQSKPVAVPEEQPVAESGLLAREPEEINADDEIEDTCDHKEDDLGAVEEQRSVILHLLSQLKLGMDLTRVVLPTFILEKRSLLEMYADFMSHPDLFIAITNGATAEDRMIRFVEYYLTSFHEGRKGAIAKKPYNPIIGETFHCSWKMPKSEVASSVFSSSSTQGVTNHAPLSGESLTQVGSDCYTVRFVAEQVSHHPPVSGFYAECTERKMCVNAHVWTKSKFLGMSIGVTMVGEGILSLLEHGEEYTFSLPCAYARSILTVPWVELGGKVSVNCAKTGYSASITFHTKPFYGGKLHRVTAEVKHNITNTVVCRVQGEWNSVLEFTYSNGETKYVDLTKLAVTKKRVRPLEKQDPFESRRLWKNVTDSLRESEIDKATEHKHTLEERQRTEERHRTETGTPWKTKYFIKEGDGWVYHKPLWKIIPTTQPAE

Tests used:
Assay in all cases: log2 fold change, soluble protein after heating vs DMSO (PISA); higher = thermal stabilisation; K562 cells, 10 uM, 30 min; active = over 0.2 and 3.5 SD of the protein, either way, in both replicates (recomputed)
[1] = compound: C#Cc1cccc(Nc2ncnc3cc(OCCOC)c(OCCOC)cc23)c1 [erlotinib]
Outline: (§1)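 Aliquots of K562 cells (2×10^6 cells/mL) treated with 10 μM compound for 30 min were heated for 3 min over 48°C-58°C. After pooling and extraction in PBS with 0.5% NP-40 at 4°C, soluble protein from a 21,000xg, 90 min spin was quantified by TMTpro 16plex LC-MS/MS with channel sums equalised. Thermal stability is expressed against control samples, from duplicates, as a log2 fold change.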

[2] = compound: C/C(=N\NC(=O)C1=CC(=CC=C1)S(=O)(=O)N2CCOCC2)/C3=C(C=CC(=C3)Cl)O
Outline: as §1

[3] = compound: C1=CC(=C(C=C1Cl)C2=NC3=NC=CN=C3C(=N2)NC4=CC=NC=C4)F
Outline: as §1

[4] = compound: C1=CC(=CC=C1C2=NC3=C(N2)C=C(C=C3)C(=O)N)OC4=CC=C(C=C4)Cl
Outline: as §1

[5] = compound: C1=CC2=C(C=CC(=C2)/C=C\3/C(=O)NC(=NCC4=CC=CS4)S3)N=C1
Outline: as §1

[6] = compound: C1=CC2=NC=CN=C2C=C1/C=C/3\C(=O)NC(=O)S3
Outline: as §1

[7] = compound: C1=CC=C(C=C1)C2=NC(=C(N2)C3=CC=NC=C3)C4=CC(=C(C=C4)Cl)O
Outline: as §1

[8] = compound: C1=CC=C2C(=C1)C3=NNC4=CC=CC(=C43)C2=O
Outline: as §1

[9] = compound: C1CCN(C1)C(=O)NC2=CC=CC(=C2)NC3=NC=C(C(=N3)NCCC4=CN=CN4)Br
Outline: as §1

[10] = compound: C1CN(CCC1(CC2=CC=C(C=C2)Cl)N)C3=NC=NC4=C3C=CN4
Outline: as §1

Measured: log2 fold change

NUDT4 (UniProt Q9NZJ9)
inactive: [1] 0.046 | [2] 0.083 | [3] 0.021 | [4] -0.013 | [5] -0.021 | [6] -0.022 | [7] 0.008 | [8] -0.011 | [9] 0.003 | [10] -0.13

NUDT15 (UniProt Q9NV35)
inactive: [1] -0.006 | [2] 0.046 | [3] 0.036 | [4] 0.02 | [5] -0.004 | [6] -0.012 | [7] 0.037 | [8] 0.009 | [9] -0.061 | [10] -0.018

NUBP1 (UniProt P53384)
inactive: [1] 0.169 | [2] 0.045 | [3] 0.049 | [4] 0.003 | [5] 0.069 | [6] 0.02 | [7] -0.003 | [8] 0.037 | [9] 0.002 | [10] -0.014

NUS1 (UniProt Q96E22)
inactive: [1] -0.071 | [2] 0.047 | [3] 0.032 | [4] 0.052 | [5] 0.019 | [6] 0.082 | [7] -0.041 | [8] -0.114 | [9] -0.036 | [10] 0.013

NT5C2 (UniProt P49902)
inactive: [1] 0.007 | [2] 0.011 | [3] 0.051 | [4] 0.022 | [5] 0.02 | [6] 0.031 | [7] -0.015 | [8] -0.009 | [9] -0.007 | [10] 0.075

NUP54 (UniProt Q7Z3B4)
inactive: [1] 0.093 | [2] 0.077 | [3] 0.018 | [4] -0.03 | [5] 0.057 | [6] 0.015 | [7] 0.033 | [8] 0.035 | [9] -0.006 | [10] -0.021

NUP50 (UniProt Q9UKX7)
inactive: [1] -0.002 | [2] -0.007 | [3] -0.011 | [4] -0.01 | [5] 0.013 | [6] 0.002 | [7] -0.021 | [8] -0.023 | [9] 0.028 | [10] 0.071

NUDCD2 (UniProt Q8WVJ2)
inactive: [1] 0.054 | [2] -0.003 | [3] 0.019 | [4] -0.071 | [5] 0.025 | [6] 0.018 | [7] -0.014 | [8] 0.012 | [9] -0.107 | [10] -0.08

PABPC1 (UniProt P11940)
inactive: [1] -0.133 | [2] -0.006 | [3] -0.152 | [4] 0.088 | [5] -0.045 | [6] 0.002 | [7] -0.062 | [8] -0.098 | [9] 0.052 | [10] -0.077

NUDT17 (UniProt P0C025)
inactive: [1] -0.099 | [2] 0.098 | [3] -0.04 | [4] 0.111 | [5] -0.058 | [6] -0.186 | [7] 0.1 | [8] -0.066 | [9] -0.058 | [10] -0.053

ODR4 (UniProt Q5SWX8)
inactive: [1] 0.046 | [2] -0.018 | [3] 0.015 | [4] -0.004 | [5] 0.094 | [6] 0.019 | [7] 0.048 | [8] 0.012 | [9] -0.051 | [10] 0.059

OGN (UniProt P20774)
inactive: [1] 0.192 | [2] -0.126 | [3] 0.015 | [4] -0.013 | [5] 0.056 | [6] -0.178 | [7] -0.092 | [8] 0.063 | [9] -0.11 | [10] 0.058

OTUD6B (UniProt Q8N6M0)
inactive: [1] 0.053 | [2] 0.117 | [3] -0.103 | [4] 0.019 | [5] 0.142 | [6] 0.032 | [7] -0.001 | [8] 0.051 | [9] -0.014 | [10] -0.055

2 consecutive records from above, for reference:
ODR4 (UniProt Q5SWX8)
inactive: [1] 0.046 | [2] -0.018 | [3] 0.015 | [4] -0.004 | [5] 0.094 | [6] 0.019 | [7] 0.048 | [8] 0.012 | [9] -0.051 | [10] 0.059

OGN (UniProt P20774)
inactive: [1] 0.192 | [2] -0.126 | [3] 0.015 | [4] -0.013 | [5] 0.056 | [6] -0.178 | [7] -0.092 | [8] 0.063 | [9] -0.11 | [10] 0.058

Remaining list, next part:

OXCT1 (UniProt P55809)
inactive: [1] -0.023 | [2] 0.049 | [3] 0.117 | [4] -0.044 | [5] 0.014 | [6] 0.06 | [7] 0 | [8] 0.027 | [9] 0.019 | [10] 0.036

OSTF1 (UniProt Q92882)
inactive: [1] 0.058 | [2] 0.094 | [3] 0.035 | [4] 0.016 | [5] -0.095 | [6] 0.051 | [7] 0.028 | [8] 0.131 | [9] -0.061 | [10] -0.072

NTPCR (UniProt Q9BSD7)
inactive: [1] 0.063 | [2] 0.031 | [3] 0.093 | [4] 0.062 | [5] 0.055 | [6] 0.013 | [7] 0.012 | [8] 0.059 | [9] -0.01 | [10] 0.045

NUP214 isoform 5 (UniProt P35658)
inactive: [1] 0.001 | [2] -0.002 | [3] -0.199 | [4] -0.021 | [5] -0.001 | [6] 0.031 | [7] -0.05 | [8] 0.037 | [9] 0.014 | [10] -0.084

OS9 (UniProt Q13438)
inactive: [1] -0.024 | [2] -0.046 | [3] -0.037 | [4] 0.03 | [5] 0.026 | [6] 0.019 | [7] -0.016 | [8] -0.03 | [9] -0.003 | [10] -0.007

OSGEP (UniProt Q9NPF4)
inactive: [1] 0.018 | [2] 0.021 | [3] 0.02 | [4] -0.016 | [5] 0.015 | [6] 0.005 | [7] 0.006 | [8] 0.014 | [9] 0 | [10] 0.016

OSTC (UniProt Q9NRP0)
inactive: [1] 0.021 | [2] 0.024 | [3] 0.022 | [4] 0.017 | [5] 0.004 | [6] -0.001 | [7] 0.014 | [8] 0.048 | [9] -0.041 | [10] 0.088

OGFOD2 (UniProt Q6N063)
inactive: [1] -0.051 | [3] -0.047 | [4] 0.011 | [5] 0.089 | [6] 0.14 | [7] 0.004 | [8] 0.041 | [9] 0.023 | [10] 0.017
active: [2] -0.283

NUDT16L1 (UniProt Q9BRJ7)
inactive: [1] -0.042 | [2] 0.041 | [3] 0.003 | [4] 0.024 | [5] 0.007 | [6] 0.049 | [7] 0.014 | [8] -0.01 | [9] 0.022 | [10] -0.005

NSUN2 (UniProt Q08J23)
inactive: [1] -0.017 | [2] 0.137 | [3] -0.002 | [4] 0.038 | [5] -0.018 | [6] 0.006 | [7] -0.052 | [8] -0.112 | [9] -0.067 | [10] 0.064

OGFOD1 (UniProt Q8N543)
inactive: [1] 0.043 | [2] -0.18 | [3] 0.02 | [4] 0.007 | [5] 0.015 | [6] 0.11 | [7] -0.01 | [8] 0.014 | [9] 0.007 | [10] 0.03

NT5C3A (UniProt Q9H0P0)
inactive: [1] 0.045 | [2] -0.025 | [3] -0.105 | [4] 0.054 | [5] 0.016 | [6] -0.035 | [7] -0.057 | [8] 0.068 | [9] -0.026 | [10] -0.231

OXSR1 (UniProt O95747)
inactive: [1] 0.042 | [2] 0.091 | [3] -0.024 | [4] -0.056 | [5] 0.106 | [6] 0.004 | [7] 0.039 | [8] 0.054 | [9] -0.008 | [10] 0.007

NUP93 (UniProt Q8N1F7)
inactive: [1] 0.007 | [2] 0.066 | [3] -0.037 | [4] -0.007 | [5] 0.035 | [6] 0.033 | [7] -0.003 | [8] -0.111 | [9] -0.044 | [10] -0.095

OIP5 (UniProt O43482)
inactive: [1] -0.015 | [2] 0.001 | [3] -0.048 | [4] 0.014 | [5] 0.063 | [6] 0.035 | [7] -0.068 | [8] -0.045 | [9] -0.02 | [10] 0.043

OSTM1 (UniProt Q86WC4)
inactive: [1] 0.034 | [2] 0.111 | [3] 0.077 | [4] 0.107 | [5] -0.106 | [6] 0.001 | [7] 0.044 | [8] -0.047 | [9] -0.035 | [10] -0.002

OSBPL11 (UniProt Q9BXB4)
inactive: [1] -0.106 | [4] -0.122
